Some of the results follow.
Assays:
Assay in all cases: glycan array binding signal (z-score within array); higher = stronger binding
Conditions in all cases: glycan notation: IUPAC condensed, linker removed
GalNAc(b1-4)GlcNAc = target: GalNAc(b1-4)GlcNAc
Procedure, shortened: (§1)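 The binding signal is a Z-score computed within each array and averaged over linkers. Arrays of the same protein sequence at different concentrations or buffers were also averaged together. Data originate from 3228 arrays in the Consortium for Functional Glycomics database, kept only where the protein sequence was available.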

[1] = target: GalNAc(b1-4)GlcNAc(b1-2)Man
Procedure, shortened: as §1

[2] = target: GalNAc(b1-4)GlcNAc(b1-2)Man(a1-3)[GalNAc(b1-4)GlcNAc(b1-2)Man(a1-6)]Man(b1-4)GlcNAc(b1-4)GlcNAc
Procedure, shortened: as §1

[3] = target: GalNAc(b1-4)GlcNAc(b1-3)GalNAc(b1-4)GlcNAc
Procedure, shortened: as §1

GalNAc(b1-4)GlcNAc6S = target: GalNAc(b1-4)GlcNAc6S
Procedure, shortened: as §1

GalNAc(b1-6)GalNAc = target: GalNAc(b1-6)GalNAc
Procedure, shortened: as §1

GalNAc3S(b1-4)GlcNAc = target: GalNAc3S(b1-4)GlcNAc
Procedure, shortened: as §1

GalNAc3S(b1-4)GlcNAc3S = target: GalNAc3S(b1-4)GlcNAc3S
Procedure, shortened: as §1

[4] = target: GalNAc3S(b1-4)[Fuc(a1-3)]GlcNAc
Procedure, shortened: as §1

GalNAc4S6S(b1-4)GlcNAc = target: GalNAc4S6S(b1-4)GlcNAc
Procedure, shortened: as §1

GalNAc6S(b1-4)GlcNAc = target: GalNAc6S(b1-4)GlcNAc
Procedure, shortened: as §1

Glc(a1-4)Glc = target: Glc(a1-4)Glc
Procedure, shortened: as §1

[5] = target: Glc(a1-4)Glc(a1-4)Glc(a1-4)Glc
Procedure, shortened: as §1

Glc(a1-6)Glc(a1-6)Glc = target: Glc(a1-6)Glc(a1-6)Glc
Procedure, shortened: as §1

[6] = target: Glc(a1-6)Glc(a1-6)Glc(a1-6)Glc
Procedure, shortened: as §1

Glc(b1-4)Glc = target: Glc(b1-4)Glc
Procedure, shortened: as §1

Glc(b1-6)Glc = target: Glc(b1-6)Glc
Procedure, shortened: as §1

GlcA(b1-3)Gal = target: GlcA(b1-3)Gal
Procedure, shortened: as §1

GlcA(b1-3)GlcNAc = target: GlcA(b1-3)GlcNAc
Procedure, shortened: as §1

GlcA(b1-6)Gal = target: GlcA(b1-6)Gal
Procedure, shortened: as §1

[7] = target: GlcA3S(b1-3)Gal(b1-4)GlcNAc(b1-2)Man
Procedure, shortened: as §1

[8] = target: GlcA3S(b1-3)Gal(b1-4)GlcNAc(b1-3)Gal(b1-4)Glc
Procedure, shortened: as §1

[9] = target: GlcNAc(a1-3)Gal(b1-4)GlcNAc
Procedure, shortened: as §1

[10] = target: GlcNAc(a1-4)Gal(b1-3)GlcNAc
Procedure, shortened: as §1

[11] = target: GlcNAc(a1-4)Gal(b1-4)GalNAc
Procedure, shortened: as §1

[12] = target: GlcNAc(a1-4)Gal(b1-4)GlcNAc
Procedure, shortened: as §1

[13] = target: GlcNAc(a1-4)Gal(b1-4)GlcNAc(b1-3)Gal(b1-4)Glc
Procedure, shortened: as §1

[14] = target: GlcNAc(a1-4)Gal(b1-4)GlcNAc(b1-3)Gal(b1-4)GlcNAc
Procedure, shortened: as §1

[15] = target: GlcNAc(a1-4)Gal(b1-4)GlcNAc(b1-3)Gal(b1-4)GlcNAc(b1-3)Gal(b1-4)GlcNAc
Procedure, shortened: as §1

[16] = target: GlcNAc(a1-4)Gal(b1-4)GlcNAc(b1-3)Gal(b1-4)[Fuc(a1-3)]GlcNAc(b1-3)Gal(b1-4)[Fuc(a1-3)]GlcNAc
Procedure, shortened: as §1

[17] = target: GlcNAc(a1-6)Gal(b1-4)GlcNAc
Procedure, shortened: as §1

[18] = target: GlcNAc(b1-2)Gal(b1-3)GalNAc
Procedure, shortened: as §1

[19] = target: GlcNAc(b1-2)Man(a1-3)[GlcNAc(b1-2)Man(a1-6)]Man(b1-4)GlcNAc(b1-4)GlcNAc
Procedure, shortened: as §1

[20] = target: GlcNAc(b1-2)Man(a1-3)[GlcNAc(b1-2)Man(a1-6)]Man(b1-4)GlcNAc(b1-4)[Fuc(a1-6)]GlcNAc
Procedure, shortened: as §1

[21] = target: GlcNAc(b1-2)Man(a1-3)[GlcNAc(b1-4)][GlcNAc(b1-2)Man(a1-6)]Man(b1-4)GlcNAc(b1-4)GlcNAc
Procedure, shortened: as §1

[22] = target: GlcNAc(b1-2)Man(a1-3)[GlcNAc(b1-4)][GlcNAc(b1-2)Man(a1-6)]Man(b1-4)GlcNAc(b1-4)[Fuc(a1-6)]GlcNAc
Procedure, shortened: as §1

[23] = target: GlcNAc(b1-2)[GlcNAc(b1-4)]Man(a1-3)[GlcNAc(b1-2)Man(a1-6)]Man(b1-4)GlcNAc(b1-4)GlcNAc
Procedure, shortened: as §1

[24] = target: GlcNAc(b1-2)[GlcNAc(b1-4)]Man(a1-3)[GlcNAc(b1-4)][GlcNAc(b1-2)Man(a1-6)]Man(b1-4)GlcNAc(b1-4)GlcNAc
Procedure, shortened: as §1

[25] = target: GlcNAc(b1-2)[GlcNAc(b1-4)]Man(a1-3)[GlcNAc(b1-4)][GlcNAc(b1-2)[GlcNAc(b1-6)]Man(a1-6)]Man(b1-4)GlcNAc(b1-4)GlcNAc
Procedure, shortened: as §1

[26] = target: GlcNAc(b1-2)[GlcNAc(b1-4)]Man(a1-3)[GlcNAc(b1-4)][GlcNAc(b1-2)[GlcNAc(b1-6)]Man(a1-6)]Man(b1-4)GlcNAc(b1-4)[Fuc(a1-6)]GlcNAc
Procedure, shortened: as §1

[27] = target: GlcNAc(b1-2)[GlcNAc(b1-6)]Man(a1-6)[GlcNAc(b1-2)Man(a1-3)]Man(b1-4)GlcNAc(b1-4)GlcNAc
Procedure, shortened: as §1

[28] = target: GlcNAc(b1-2)[GlcNAc(b1-6)]Man(a1-6)[GlcNAc(b1-2)Man(a1-3)]Man(b1-4)GlcNAc(b1-4)[Fuc(a1-6)]GlcNAc
Procedure, shortened: as §1

[29] = target: GlcNAc(b1-2)[GlcNAc(b1-6)]Man(a1-6)[GlcNAc(b1-4)][GlcNAc(b1-2)Man(a1-3)]Man(b1-4)GlcNAc(b1-4)GlcNAc
Procedure, shortened: as §1

GlcNAc(b1-3)Fuc = target: GlcNAc(b1-3)Fuc
Procedure, shortened: as §1

GlcNAc(b1-3)Gal = target: GlcNAc(b1-3)Gal
Procedure, shortened: as §1

B1: BIp1-His (Cryptococcus neoformans) (protein)
chain: MFTKIFVALFAATAVLSAPVESAEKRITHTGRATFYSPSVGIGACGWQNTDEELVVALNAPQYALNADHNCGQSVRITNEQNGNQEIAKVVDLCPGCNDGDLDMSPALFGALNNNDFDQGVFPISWNFLPRDDTSSSN
glycan array binding signal (z-score) (GalNAc(b1-4)GlcNAc): 0.327 | glycan array binding signal (z-score) [1]: -1.18 | glycan array binding signal (z-score) [2]: 0.461 | glycan array binding signal (z-score) [3]: -0.335 | glycan array binding signal (z-score) (GalNAc(b1-4)GlcNAc6S): 0.287 | glycan array binding signal (z-score) (GalNAc(b1-6)GalNAc): -0.887 | glycan array binding signal (z-score) (GalNAc3S(b1-4)GlcNAc): 0.365 | glycan array binding signal (z-score) (GalNAc3S(b1-4)GlcNAc3S): 0.379 | glycan array binding signal (z-score) [4]: -0.751 | glycan array binding signal (z-score) (GalNAc4S6S(b1-4)GlcNAc): 0.577 | glycan array binding signal (z-score) (GalNAc6S(b1-4)GlcNAc): -0.533 | glycan array binding signal (z-score) (Glc(a1-4)Glc): -0.489 | glycan array binding signal (z-score) [5]: 1.1 | glycan array binding signal (z-score) (Glc(a1-6)Glc(a1-6)Glc): -0.071 | glycan array binding signal (z-score) [6]: -0.635 | glycan array binding signal (z-score) (Glc(b1-4)Glc): -0.852 | glycan array binding signal (z-score) (Glc(b1-6)Glc): -0.14 | glycan array binding signal (z-score) (GlcA(b1-3)Gal): -0.254 | glycan array binding signal (z-score) (GlcA(b1-3)GlcNAc): -0.499 | glycan array binding signal (z-score) (GlcA(b1-6)Gal): -0.416 | glycan array binding signal (z-score) [7]: -0.207 | glycan array binding signal (z-score) [8]: -0.183 | glycan array binding signal (z-score) [9]: 0.188 | glycan array binding signal (z-score) [10]: -0.318 | glycan array binding signal (z-score) [11]: -1.12 | glycan array binding signal (z-score) [12]: -0.708 | glycan array binding signal (z-score) [13]: 0.045 | glycan array binding signal (z-score) [14]: -0.297 | glycan array binding signal (z-score) [15]: -0.512 | glycan array binding signal (z-score) [16]: 2.19 | glycan array binding signal (z-score) [17]: -0.844 | glycan array binding signal (z-score) [18]: 0.228 | glycan array binding signal (z-score) [19]: -0.765 | glycan array binding signal (z-score) [20]: 0.606 | glycan array binding signal (z-score) [21]: 0.434 | glycan array binding signal (z-score) [22]: 0.086 | glycan array binding signal (z-score) [23]: -0.256 | glycan array binding signal (z-score) [24]: 0.058 | glycan array binding signal (z-score) [25]: -0.2 | glycan array binding signal (z-score) [26]: -0.309 | glycan array binding signal (z-score) [27]: 1.22 | glycan array binding signal (z-score) [28]: 0.324 | glycan array binding signal (z-score) [29]: -0.11 | glycan array binding signal (z-score) (GlcNAc(b1-3)Fuc): 0.977 | glycan array binding signal (z-score) (GlcNAc(b1-3)Gal): -0.699

From the supplement of paper PMC8728848
